These are yes or no findings as the source states them, for the method shown. Some results given as binding are weak or reduced against the parent protein; the word gives no strength. Tags and fused reporters may be left off the sequences shown. Values belong to the binder of their own block, whether it stands above or below them.
Key:
[1] = biological target: T1, His6-tagged human DISC1 C-region (residues 691-836) (human), Q9NRI5; test: dynamic light scattering; freshly prepared (off-column) His6-C-region followed over hours at 20 °C; TBS; Fig. S1; both purified; details: remark: other sources report otherwise
T1 chain: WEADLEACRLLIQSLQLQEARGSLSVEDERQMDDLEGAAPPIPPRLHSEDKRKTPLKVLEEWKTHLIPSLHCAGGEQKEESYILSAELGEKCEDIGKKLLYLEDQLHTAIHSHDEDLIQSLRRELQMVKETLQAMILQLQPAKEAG

[2] = biological target: T2, MBP-His6-fused human DISC1 C-region (residues 691-836) (human), Q9NRI5; test: ITC; no titration: heat flow of the spontaneous association of the protein solution monitored in the cell (iTC-200, 300 rpm); 10-50 µM at 37 °C, 10 µM at 20-60 °C; dH from the peak area normalised to the protein amount; both purified; details: remark: other sources report otherwise
T2 chain: T1 chain

- binding [1]: binds
B1: His6-tagged human DISC1 C-region (residues 691-836), Q9NRI5 691-836 (domain or fragment)
chain: T1 chain

- binding [2]: binds
B2: MBP-His6-fused human DISC1 C-region (residues 691-836), Q9NRI5 691-836 (domain or fragment)
chain: T1 chain
